Measurements from paper PMC4848090, “Mechanistic insight into a peptide hormone signaling complex mediating floral organ abscission” (eLife, 2016).
Results are given in words; binding and its absence hold for the method and conditions named. Some binding calls cover weakened binding; strength is not graded here. Each block holds one binder with its values, some of them ahead of it.

How the values were obtained:
[1] = molecular target: T1, Arabidopsis thaliana HAESA ectodomain (residues 20–620) (Arabidopsis thaliana) (UniProt P47735); experiment: ITC; peptide solution (250 μM) injected in 10 μL aliquots into 20 μM HAESA ectodomain in the cell; 25°C; 20 mM citric acid pH 5.0, 100 mM NaCl; both purified
T1 sequence (chain, N-glycans (glycoprotein of ~75 kDa)): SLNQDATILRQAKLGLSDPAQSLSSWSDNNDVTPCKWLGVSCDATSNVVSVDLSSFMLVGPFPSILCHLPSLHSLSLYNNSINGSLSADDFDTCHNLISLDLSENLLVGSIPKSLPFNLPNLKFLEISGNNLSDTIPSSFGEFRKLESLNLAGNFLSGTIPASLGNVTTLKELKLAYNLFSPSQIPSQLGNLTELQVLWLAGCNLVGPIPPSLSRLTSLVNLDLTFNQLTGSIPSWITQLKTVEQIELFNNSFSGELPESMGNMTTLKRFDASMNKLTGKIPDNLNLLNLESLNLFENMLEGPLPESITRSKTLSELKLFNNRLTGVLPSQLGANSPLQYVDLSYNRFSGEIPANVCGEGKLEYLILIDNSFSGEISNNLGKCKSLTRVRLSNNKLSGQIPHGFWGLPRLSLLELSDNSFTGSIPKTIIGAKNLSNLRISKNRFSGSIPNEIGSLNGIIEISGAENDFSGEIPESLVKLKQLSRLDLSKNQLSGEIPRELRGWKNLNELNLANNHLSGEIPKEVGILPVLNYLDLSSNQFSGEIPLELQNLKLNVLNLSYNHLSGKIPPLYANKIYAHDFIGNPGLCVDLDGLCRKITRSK

[2] = molecular target: Arabidopsis thaliana SERK1 ectodomain (residues 24–213, Asn115→Asp and Asn163→Gln) (Arabidopsis thaliana) (UniProt Q94AG2); experiment: SEC; Superdex 200 HR 10/30, 20 mM citric acid pH 5, 100 mM NaCl; isolated HAESA ectodomain (5.5 mg/mL) or isolated SERK1 LRR domain (3 mg/mL); both purified
[3] = molecular target: T1, Arabidopsis thaliana HAESA ectodomain (residues 20–620) (Arabidopsis thaliana); experiment: as above

B3: synthetic IDA-SFVN peptide YPIPPSA-Hyp-… (peptide)
peptide: YPIPPSAPSKRHNSFVN
modifications: hydroxyproline (Hyp) at Hyp64 (IDA numbering)
binding [1]: no binding (tested: 250 μM peptide into 20 μM HAESA)

B5: Arabidopsis thaliana HAESA ectodomain (residues 20–620) (domain or fragment)
chain: SLNQDATILRQAKLGLSDPAQSLSSWSDNNDVTPCKWLGVSCDATSNVVSVDLSSFMLVGPFPSILCHLPSLHSLSLYNNSINGSLSADDFDTCHNLISLDLSENLLVGSIPKSLPFNLPNLKFLEISGNNLSDTIPSSFGEFRKLESLNLAGNFLSGTIPASLGNVTTLKELKLAYNLFSPSQIPSQLGNLTELQVLWLAGCNLVGPIPPSLSRLTSLVNLDLTFNQLTGSIPSWITQLKTVEQIELFNNSFSGELPESMGNMTTLKRFDASMNKLTGKIPDNLNLLNLESLNLFENMLEGPLPESITRSKTLSELKLFNNRLTGVLPSQLGANSPLQYVDLSYNRFSGEIPANVCGEGKLEYLILIDNSFSGEISNNLGKCKSLTRVRLSNNKLSGQIPHGFWGLPRLSLLELSDNSFTGSIPKTIIGAKNLSNLRISKNRFSGSIPNEIGSLNGIIEISGAENDFSGEIPESLVKLKQLSRLDLSKNQLSGEIPRELRGWKNLNELNLANNHLSGEIPKEVGILPVLNYLDLSSNQFSGEIPLELQNLKLNVLNLSYNHLSGKIPPLYANKIYAHDFIGNPGLCVDLDGLCRKITRSK
modifications: N-glycans (glycoprotein of ~75 kDa)
binding [3]: no binding (tested: 5.5 mg/mL)

Further lines, results first:

binding [1]: binds weakly
B1: synthetic PKGV-IDA peptide …-Hyp-SKRHN (peptide)
peptide: YPKGVPIPPSAPSKRHN
modifications: hydroxyproline (Hyp) at Hyp64 (IDA numbering)

binding [1]: binds weakly
B2: synthetic IDL1 peptide YLVPPSG-Hyp-SMRHN (ITC) (peptide)
peptide: YLVPPSGPSMRHN
modifications: hydroxyproline (Hyp) at the 8th residue of the printed peptide

binding [2]: no binding (tested: 3 mg/mL)
B4: Arabidopsis thaliana SERK1 ectodomain (residues 24–213, Asn115→Asp and Asn163→Gln) (domain or fragment, UniProt Q94AG2 24-213)
chain: ASANLEGDALHTLRVTLVDPNNVLQSWDPTLVNPCTWFHVTCNNENSVIRVDLGNAELSGHLVPELGVLKNLQYLELYSNNITGPIPSNLGDLTNLVSLDLYLNSFSGPIPESLGKLSKLRFLRLNNNSLTGSIPMSLTQITTLQVLDLSNNRLSGSVPDNGSFSLFTPISFANNLDLCGPVTSHPCPGS
